Results are given in words; binding and its absence hold for the method and conditions named. Some results given as binding are weak or reduced against the parent protein; the word gives no strength.

Protein sequences, listed by entry. Tags and fused reporters are not part of them. Lines headed by an entry give the natural chain unless they say otherwise; changes in a name come on top.
UniProt P00451: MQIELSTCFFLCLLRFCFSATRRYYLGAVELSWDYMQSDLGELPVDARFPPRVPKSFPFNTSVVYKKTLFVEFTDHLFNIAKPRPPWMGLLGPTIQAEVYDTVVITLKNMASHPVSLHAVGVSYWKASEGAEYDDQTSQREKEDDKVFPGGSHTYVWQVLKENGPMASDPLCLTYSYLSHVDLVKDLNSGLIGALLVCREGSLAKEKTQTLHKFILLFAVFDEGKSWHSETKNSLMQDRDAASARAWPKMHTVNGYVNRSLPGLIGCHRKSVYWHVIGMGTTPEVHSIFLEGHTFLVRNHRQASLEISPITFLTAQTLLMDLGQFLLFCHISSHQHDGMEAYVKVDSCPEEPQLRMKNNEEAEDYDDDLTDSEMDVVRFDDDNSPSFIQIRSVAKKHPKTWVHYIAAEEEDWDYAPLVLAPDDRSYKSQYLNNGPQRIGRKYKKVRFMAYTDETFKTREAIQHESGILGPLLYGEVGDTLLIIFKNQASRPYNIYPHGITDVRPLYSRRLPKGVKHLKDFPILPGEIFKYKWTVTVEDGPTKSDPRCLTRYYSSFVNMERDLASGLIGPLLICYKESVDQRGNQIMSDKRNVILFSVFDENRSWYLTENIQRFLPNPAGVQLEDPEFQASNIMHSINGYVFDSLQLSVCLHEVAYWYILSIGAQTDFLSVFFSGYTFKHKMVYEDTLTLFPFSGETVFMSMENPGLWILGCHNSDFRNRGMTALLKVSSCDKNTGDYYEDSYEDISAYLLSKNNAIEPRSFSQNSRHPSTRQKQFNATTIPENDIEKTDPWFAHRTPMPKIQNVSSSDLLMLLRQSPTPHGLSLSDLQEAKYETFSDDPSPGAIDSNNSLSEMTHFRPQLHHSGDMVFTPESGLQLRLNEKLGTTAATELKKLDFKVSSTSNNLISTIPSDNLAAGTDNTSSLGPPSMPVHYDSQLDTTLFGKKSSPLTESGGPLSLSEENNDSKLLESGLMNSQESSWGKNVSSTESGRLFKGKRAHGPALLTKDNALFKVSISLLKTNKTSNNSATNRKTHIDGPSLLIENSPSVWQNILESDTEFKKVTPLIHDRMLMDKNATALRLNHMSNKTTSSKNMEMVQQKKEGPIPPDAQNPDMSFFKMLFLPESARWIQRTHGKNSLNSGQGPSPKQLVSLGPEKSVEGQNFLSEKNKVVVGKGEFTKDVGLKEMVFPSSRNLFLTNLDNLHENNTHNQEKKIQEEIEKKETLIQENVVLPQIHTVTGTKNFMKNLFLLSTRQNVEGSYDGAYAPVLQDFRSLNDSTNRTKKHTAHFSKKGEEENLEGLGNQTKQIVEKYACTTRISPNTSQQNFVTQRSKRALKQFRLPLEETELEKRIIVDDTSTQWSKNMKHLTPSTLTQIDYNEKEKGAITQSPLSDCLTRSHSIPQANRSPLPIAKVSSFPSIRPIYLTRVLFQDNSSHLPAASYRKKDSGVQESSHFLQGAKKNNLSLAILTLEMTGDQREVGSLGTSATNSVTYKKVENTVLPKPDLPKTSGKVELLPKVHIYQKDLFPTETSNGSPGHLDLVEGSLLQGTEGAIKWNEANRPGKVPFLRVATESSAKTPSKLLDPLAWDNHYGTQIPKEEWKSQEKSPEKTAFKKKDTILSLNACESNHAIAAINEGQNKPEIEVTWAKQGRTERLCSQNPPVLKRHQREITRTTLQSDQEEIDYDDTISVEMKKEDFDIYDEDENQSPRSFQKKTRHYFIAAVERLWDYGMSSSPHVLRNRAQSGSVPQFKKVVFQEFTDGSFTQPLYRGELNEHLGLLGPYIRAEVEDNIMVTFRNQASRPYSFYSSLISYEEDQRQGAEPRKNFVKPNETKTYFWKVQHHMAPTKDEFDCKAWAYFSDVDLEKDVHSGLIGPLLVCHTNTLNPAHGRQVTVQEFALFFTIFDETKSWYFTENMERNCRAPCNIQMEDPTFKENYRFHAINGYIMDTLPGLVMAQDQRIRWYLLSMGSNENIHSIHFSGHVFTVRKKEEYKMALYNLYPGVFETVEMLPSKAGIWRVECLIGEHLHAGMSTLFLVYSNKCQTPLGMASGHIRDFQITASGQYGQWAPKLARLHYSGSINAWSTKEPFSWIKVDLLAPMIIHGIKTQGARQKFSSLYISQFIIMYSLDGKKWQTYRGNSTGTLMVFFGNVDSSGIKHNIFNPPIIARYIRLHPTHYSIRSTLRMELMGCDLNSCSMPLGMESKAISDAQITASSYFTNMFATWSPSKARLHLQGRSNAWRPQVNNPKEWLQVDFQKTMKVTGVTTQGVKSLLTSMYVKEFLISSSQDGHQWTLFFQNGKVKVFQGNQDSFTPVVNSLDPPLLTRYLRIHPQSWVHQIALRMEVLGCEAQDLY

Experiment [1] deals with recombinant FVIII (Homo sapiens (Human)) (UniProt P00451). The experiment can be described thus: phage display selection on recombinant FVIII or its domains, then ELISA. A general note: In an ELISA, binding on a coated surface is turned into a signal by an enzyme label.
Experiment [2] concerns the target recombinant FVIII domain A2 (Homo sapiens (Human)) (UniProt P00451). Kind of experiment: Intavis peptide array incubated with the A2 domain.
In experiment [3] the target is recombinant FVIII (Homo sapiens (Human)) (UniProt P00451). Kind of experiment: Intavis peptide array incubated with recombinant FVIII.

B1: SEQ ID NO 25 (peptide)
peptide: QVQLLESGGGLVQPGGSLRLSCAASGFTVSPNMSWVRQAPGKGLEWVSISSITVPNGSTYYADSVKGRFTRDNSKNTLYLQMNSLRAEDTAVYYCAGYSPWYDNFRYWGQGTLVTVSS
For B1, the binding entry in experiment [1] is “binds”.
Take TQFTCNNGRCI [Ligand 384-3]: the binding entry in experiment [2] and in experiment [3] was “binds” throughout.
In the case of MKGKYGIYTKVSRYVNWIKEKTK [Ligand 384-7], the binding result in experiment [2] and in experiment [3] was “binds” throughout.
On to ADKEYTNIFLKFGSGYVSGWGRVFHKGRSAL [Ligand 384-8], for which the binding entry in experiment [2] and in experiment [3] was “binds” throughout.
As to HHHHNRHQWLWTDTNVKVTS [SEQ ID NO 24], the binding entry in experiment [1] was “binds”.
As to HTEQKRNVIRIIPHHNYNAAINK [Ligand 384-6], the binding entry in experiment [2] and in experiment [3] was “binds” each time.
On to QCRLDGLCIPLRWRC [Ligand 384-5], for which the binding result in experiment [2] and in experiment [3] was “binds” in each case.
Turning to TKVSRYV [Ligand 384-2], the binding entry in experiment [2] and in experiment [3] was “binds” throughout.
Consider IRIIPHH [Ligand 384-1], for which the binding entry in experiment [2] and in experiment [3] was “binds” each time.
With TQFTCNNGRCININW [Ligand 384-4], the binding result in experiment [2] and in experiment [3] was “binds” throughout.

(Values after patent publication WO2011095604A1 (dated 2011).)
